Source: PubChem BioAssay AID1224826 (NIAID, 2016)
Screen: 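Genes that change LPS-induced Tnf promoter activity in mouse macrophages when knocked down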 (primary screen). Cell system: RAW264.7 G9 macrophages from mouse bearing reporters for p65 (GFP) and the Tnf promoter (mCherry). Reagents: siRNA pool against mouse genes, 100 nM. Duration: 16 h of LPS stimulation, after 2 days of siRNA transfection. Challenge: bacterial lipopolysaccharide (Salmonella minnesota R595), 10 ng/ml. Detection: 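Nuclear mCherry signal of the Tnf promoter reporter measured by imaging after background removal, scaled to each plate median and turned into robust z-scores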. Reading the numbers: Tnf reporter robust z-score: higher = stronger Tnf promoter reporter signal after LPS. Rule for the call: 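a well counts as active at a score of -1.3 or below (Tlr4 knock-down control median) or above 3 (raised signal); controls and wells holding fewer than 50 cells are excluded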. Meaning of the calls: active = Tnf reporter clearly lowered or raised; inactive = no clear change in Tnf reporter.
Here is one part, drawn at random, of about 17,000 reagents. About 1,110 of them (6.6%) were called active. 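Active means lowered or raised reporter signal; replicate intensities are raw and not normalised per plate.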 Not all columns of the deposit are shown.

no.	gene knocked down	Tnf reporter robust z-score	fewer than 50 cells in well	Call
1	Zfp759	-0.86	enough cells in well	inactive
2	2210408O09Rik (retired record)	1.82	enough cells in well	inactive
3	Txnl1		fewer than 50 cells per well; well left out of calls	inactive
4	Tkfc	0.01	enough cells in well	inactive
5	Muc19	-0.75	enough cells in well	inactive
6	Tbl3	-0.15	enough cells in well	inactive
7	Brip1os	0.57	enough cells in well	inactive
8	Sox5	1.8	enough cells in well	inactive
9	Rbpms2		fewer than 50 cells per well; well left out of calls	inactive
10	Lcn4	0.71	enough cells in well	inactive
11	Edc4	2.06	enough cells in well	inactive
12	Pkm		fewer than 50 cells per well; well left out of calls	inactive
13	A730036I17Rik	-1.24	enough cells in well	inactive
14	4930583K01Rik		fewer than 50 cells per well; well left out of calls	inactive
15	Iap (retired record)	0.64	enough cells in well	inactive
16	Traf1	-0.15	enough cells in well	inactive
17	Chst14	-1.21	enough cells in well	inactive
18	Cntn2	-0.84	enough cells in well	inactive
19	9230109A22Rik	2.9	enough cells in well	inactive
20	Upk1b	-0.75	enough cells in well	inactive
21	Upk3b	1.81	enough cells in well	inactive
22	Hsf1	0.12	enough cells in well	inactive
23	Tmem9b		fewer than 50 cells per well; well left out of calls	inactive
24	Gbp2	-0.86	enough cells in well	inactive

Entries above whose gene name begins with C or c (2):
gene knocked down	Tnf reporter robust z-score	fewer than 50 cells in well	Call
Chst14	-1.21	enough cells in well	inactive
Cntn2	-0.84	enough cells in well	inactive
